Reference: paper PMC2674945
Results are given in words; binding and its absence hold for the method and conditions named. Binding seen in cells or lysates may run through a third protein. Here binding means that the protein was enriched with, or labelled near, the bait; the list need not be complete. For part of these data: A no says only that the protein was not detected with the bait.

Sequences of proteins named here, by UniProt entry; tags and fusion partners are left off. A change or cut given only in a name is not applied to a line headed by its entry.
UniProt Q38CI8: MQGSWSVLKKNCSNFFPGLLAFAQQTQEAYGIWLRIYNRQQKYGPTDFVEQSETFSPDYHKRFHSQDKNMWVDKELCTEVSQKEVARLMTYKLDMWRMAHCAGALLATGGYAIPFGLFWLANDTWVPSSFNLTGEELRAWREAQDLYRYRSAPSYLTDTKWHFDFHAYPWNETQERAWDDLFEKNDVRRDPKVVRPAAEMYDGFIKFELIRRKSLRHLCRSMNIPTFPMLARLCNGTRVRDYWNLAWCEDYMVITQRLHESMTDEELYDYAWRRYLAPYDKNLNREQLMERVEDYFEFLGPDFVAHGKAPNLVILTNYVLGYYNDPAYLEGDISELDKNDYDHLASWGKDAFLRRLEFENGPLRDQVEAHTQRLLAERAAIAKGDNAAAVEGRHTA
UniProt Q57ZW9: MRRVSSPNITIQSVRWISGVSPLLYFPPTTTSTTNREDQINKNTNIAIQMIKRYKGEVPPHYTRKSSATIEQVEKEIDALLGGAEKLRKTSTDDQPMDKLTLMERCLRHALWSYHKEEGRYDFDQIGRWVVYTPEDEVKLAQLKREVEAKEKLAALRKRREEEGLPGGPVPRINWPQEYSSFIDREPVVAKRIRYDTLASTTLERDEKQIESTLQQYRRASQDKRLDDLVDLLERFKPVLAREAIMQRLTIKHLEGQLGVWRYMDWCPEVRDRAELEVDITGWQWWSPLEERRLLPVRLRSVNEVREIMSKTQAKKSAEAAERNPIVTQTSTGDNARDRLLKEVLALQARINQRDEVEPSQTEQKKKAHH
UniProt Q586H1: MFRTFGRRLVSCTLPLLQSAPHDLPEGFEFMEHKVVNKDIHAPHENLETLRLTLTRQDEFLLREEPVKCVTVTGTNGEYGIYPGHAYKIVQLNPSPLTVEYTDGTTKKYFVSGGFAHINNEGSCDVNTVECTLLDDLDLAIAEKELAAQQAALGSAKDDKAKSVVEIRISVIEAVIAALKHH
UniProt Q389Z3: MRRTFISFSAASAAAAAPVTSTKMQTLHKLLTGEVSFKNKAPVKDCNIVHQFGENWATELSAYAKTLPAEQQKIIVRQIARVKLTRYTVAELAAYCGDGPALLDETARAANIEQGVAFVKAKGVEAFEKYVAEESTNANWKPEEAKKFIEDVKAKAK
UniProt Q385E4: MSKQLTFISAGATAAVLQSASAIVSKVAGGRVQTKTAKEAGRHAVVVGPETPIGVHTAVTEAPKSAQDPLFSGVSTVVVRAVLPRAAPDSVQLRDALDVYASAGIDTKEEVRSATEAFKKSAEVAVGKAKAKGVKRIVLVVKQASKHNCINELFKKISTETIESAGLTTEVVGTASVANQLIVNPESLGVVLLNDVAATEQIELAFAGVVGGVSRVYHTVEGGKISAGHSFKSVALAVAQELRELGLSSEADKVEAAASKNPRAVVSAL
UniProt Q586X8: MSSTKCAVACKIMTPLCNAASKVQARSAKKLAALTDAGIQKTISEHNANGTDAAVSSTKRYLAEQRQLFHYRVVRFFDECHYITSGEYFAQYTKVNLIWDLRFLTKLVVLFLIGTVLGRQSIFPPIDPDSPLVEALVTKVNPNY
UniProt Q57ZE2: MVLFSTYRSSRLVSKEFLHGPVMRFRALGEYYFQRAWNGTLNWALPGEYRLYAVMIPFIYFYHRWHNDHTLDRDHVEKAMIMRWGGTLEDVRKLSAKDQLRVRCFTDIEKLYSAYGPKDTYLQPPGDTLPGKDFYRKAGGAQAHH
UniProt Q582T1: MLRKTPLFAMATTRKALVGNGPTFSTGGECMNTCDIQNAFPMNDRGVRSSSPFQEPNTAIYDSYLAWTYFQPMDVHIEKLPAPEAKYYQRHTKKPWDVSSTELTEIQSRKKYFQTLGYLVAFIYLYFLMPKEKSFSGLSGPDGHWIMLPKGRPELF
UniProt Q57ZM4: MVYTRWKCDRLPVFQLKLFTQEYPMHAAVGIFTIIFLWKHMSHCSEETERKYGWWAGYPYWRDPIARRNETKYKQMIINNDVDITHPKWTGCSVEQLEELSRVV
UniProt Q57Z84: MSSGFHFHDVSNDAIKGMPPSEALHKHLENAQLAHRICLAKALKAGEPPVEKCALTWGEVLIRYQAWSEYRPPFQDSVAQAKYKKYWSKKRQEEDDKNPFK
UniProt Q57VT0: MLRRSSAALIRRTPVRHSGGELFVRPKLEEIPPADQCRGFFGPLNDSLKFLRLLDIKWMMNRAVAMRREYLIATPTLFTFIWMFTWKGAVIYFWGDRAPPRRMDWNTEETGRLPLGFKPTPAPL

Columns and labels:
[1] = target: TAP-tagged F0 subunit b (Tb927.5.1710) (Trypanosoma brucei (strain 427 genomic DNA)) (UniProt Q57ZP0); test: affinity purification with mass spectrometry; TAP Method 2: cells lysed with 0.25% then 1.25% NP-40, sequential IgG and calmodulin affinity columns; 10-14.5% SDS-PAGE, Sypro Ruby, MS of individual gel bands
[2] = target: TAP-tagged Tb10.70.7760 (Trypanosoma brucei (strain 427 genomic DNA)) (UniProt Q38CI8); test: as above
[3] = target: TAP-tagged Tb927.5.2930 (Trypanosoma brucei (strain 427 genomic DNA)) (UniProt Q57ZW9); test: as above
[4] = target: TAP-tagged Tb10.70.7760 (Trypanosoma brucei (strain 427 genomic DNA)) (UniProt Q38CI8); test: affinity purification with mass spectrometry; TAP Method 1: cells lysed with 1% Triton X-100, IgG affinity chromatography, TEV elution, 10-30% glycerol gradient, pooled ~20S (fractions 7-13) and ~40S (fractions 17-21), calmodulin affinity chromatography, LC-MS/MS
[5] = target: TAP-tagged Tb927.5.2930 (Trypanosoma brucei (strain 427 genomic DNA)) (UniProt Q57ZW9); test: as above
[6] = target: TAP-tagged F0 subunit b (Tb927.5.1710) (Trypanosoma brucei (strain 427 genomic DNA)) (UniProt Q57ZP0); test: as above
[7] = target: TAP-tagged Tb927.5.2930 (Trypanosoma brucei (strain 427 genomic DNA)) (UniProt Q57ZW9); test: affinity purification with mass spectrometry; TAP Method 1: cells lysed with 1% Triton X-100, IgG affinity chromatography, TEV elution, 10-30% glycerol gradient, pooled ~10S (fractions 3-5), calmodulin affinity chromatography, LC-MS/MS
[8] = target: TAP-tagged F1 subunit β (Tb927.3.1380) (Trypanosoma brucei (strain 427 genomic DNA)); test: affinity purification with mass spectrometry; TAP Method 2: cells lysed with 0.25% then 1.25% NP-40, sequential IgG and calmodulin affinity columns; 10-14.5% SDS-PAGE, Sypro Ruby, MS of individual gel bands
[9] = target: TAP-tagged F1 subunit β (Tb927.3.1380) (Trypanosoma brucei (strain 427 genomic DNA)); test: affinity purification with mass spectrometry; TAP Method 1: cells lysed with 1% Triton X-100, IgG affinity chromatography, TEV elution, 10-30% glycerol gradient, pooled ~20S (fractions 7-13) and ~40S (fractions 17-21), calmodulin affinity chromatography, LC-MS/MS
[10] = target: TAP-tagged F0 subunit b (Tb927.5.1710) (Trypanosoma brucei (strain 427 genomic DNA)) (UniProt Q57ZP0); test: affinity purification with mass spectrometry; TAP Method 1: cells lysed with 1% Triton X-100, IgG affinity chromatography, TEV elution, 10-30% glycerol gradient, pooled ~10S (fractions 3-5), calmodulin affinity chromatography, LC-MS/MS
[11] = target: TAP-tagged F1 subunit β (Tb927.3.1380) (Trypanosoma brucei (strain 427 genomic DNA)); test: as above
[12] = target: TAP-tagged Tb10.70.7760 (Trypanosoma brucei (strain 427 genomic DNA)) (UniProt Q38CI8); test: as above

With “F0 subunit b (Tb927.5.1710), endogenous (from UniProt Q57ZP0)” the binding [1] was “binds”, the binding [2] was “binds” and the binding [3] was “binds”. For the same molecule, the binding [4] was “binds” and the binding [5] was “binds”.

With “F1 subunit δ (Tb927.6.4990) (from UniProt Q586H1)” the binding [1] was “binds”, the binding [2] was “binds” and the binding [3] was “binds”. For the same molecule, the binding [6] was “binds”, the binding [4] was “binds” and the binding [5] was “binds”.

With Tb10.6k15.0480 (from UniProt Q389Z3) the binding [1] was “binds”, the binding [2] was “binds” and the binding [3] was “binds”. For the same molecule, the binding [6] was “binds”, the binding [4] was “binds” and the binding [5] was “binds”.

“Tb10.70.7760, endogenous (from UniProt Q38CI8)” was tested, and the binding [1] was “binds”, the binding [2] was “no binding” and the binding [3] was “binds”. The binding [6] was “binds” and the binding [5] was “binds”.

For Tb11.02.4120 (from UniProt Q385E4), the binding [1] was “binds”, the binding [2] was “binds” and the binding [3] was “binds”. For the same molecule, the binding [7] was “binds”, the binding [6] was “binds” and the binding [4] was “binds”. The binding [5] was “binds”.

Tb927.2.3610 (from UniProt Q586X8) was tested, and the binding [1] was “binds”, the binding [2] was “binds” and the binding [3] was “binds”. The binding [6] was “binds”, the binding [4] was “binds” and the binding [5] was “binds”.

In the case of Tb927.3.1690 (from UniProt Q57ZE2), the binding [1] is reported as “binds”, the binding [2] is reported as “binds” and the binding [3] is reported as “binds”. The binding [6] was “binds”, the binding [4] was “binds” and the binding [5] was “binds”.

For Tb927.3.2180 (from UniProt Q582T1), the binding [6] was “binds”, the binding [4] was “binds” and the binding [5] was “binds”.

For Tb927.3.2880 (from UniProt Q57ZM4), the binding [6] was “binds”, the binding [4] was “binds” and the binding [5] was “binds”.

In the case of “Tb927.5.2930, endogenous (from UniProt Q57ZW9)”, the binding [1] is reported as “binds”, the binding [2] is reported as “binds” and the binding [3] is reported as “no binding”. The binding [6] was “binds” and the binding [4] was “binds”.

For Tb927.5.3090 (from UniProt Q57Z84), the binding [6] was “binds”, the binding [4] was “binds” and the binding [5] was “binds”.

With Tb927.7.840 (from UniProt Q57VT0) the binding [1] was “binds”, the binding [2] was “binds” and the binding [3] was “binds”. For the same molecule, the binding [6] was “binds”, the binding [4] was “binds” and the binding [5] was “binds”.

B1: Tb11.47.0022 (protein, UniProt Q387C5 1-169)
chain: MTKYELKMQYFDEWMIRWRKFQTESDWEIEKGRQWWRRFNMAVSGALFCGLVLYTSGTATLKRQYGLPHFFDIGVDGQAKETMLKTLTSRWRYTPQGYGRVLITGVPTYILFVSLEHYRERRRMQQYLQQNTVFGEQMRRLLSTGKIEEYLPVNIKATLPASQQAIYNY
With B1 the binding [1] was “binds”, the binding [8] was “binds” and the binding [2] was “binds”. For the same molecule, the binding [3] was “binds”, the binding [6] was “binds” and the binding [9] was “binds”. The binding [4] was “binds” and the binding [5] was “binds”.

B2: Tb11.03.0475 (protein, UniProt Q387J1 1-106)
chain: MSPKGIRYKPCTHFMSAKAAPKTLHQVRNVAYFFAAWLGVQKGYIEKSANDRLWVEHQRKVRQQNVERQQALDSIKLMQQGVRATTPGQLEGVPAELQQLAEAFTK
With B2 the binding [1] was “binds”, the binding [8] was “binds” and the binding [2] was “binds”. The binding [3] was “binds”, the binding [6] was “binds” and the binding [9] was “binds”. The binding [4] was “binds” and the binding [5] was “binds”.

B3: F1 subunit γ (Tb10.100.0070) (protein, UniProt Q38CM0 1-305)
chain: MSGKLRLYKEKLEGYNRFYSIVKTIKMVTLAKYRAAQGRIRTRDFSLRYTELAFSKPQASRDAVAAAKNALVYIPITTNRGSCGALNSNIVRCIDSVVSSKMVLMPVGKRGIDSFSKLFPDEFRYGIINDMKESMHFGYATFVIENAYEVSKDADRYQVIFNRFVSAGVQRNAVYNIPSYEKWKEDLADAGSSDNQKNRYLFANALQNEEEQLIRDFFDFHAALAVLNAVGENELSEQAARLVAVEGQLTNISSLQQRTSSLYNKTRQFGITAALIEILSAMSSLEGNAMKGVRRNKFWEGAVTK
With B3 the binding [1] was “binds”, the binding [8] was “binds” and the binding [2] was “binds”. The binding [3] was “binds”, the binding [10] was “binds” and the binding [11] was “binds”. For the same molecule, the binding [6] was “binds”, the binding [9] was “binds” and the binding [4] was “binds”. For the same molecule, the binding [5] was “binds”.

B4: OSCP (Tb10.6k15.2510) (protein, UniProt Q38AG1 1-255)
chain: MFRRLSSSARAVVAARFYTPPEGLKKLYASDFENSKYPLNIVPSDSVLFAKFLYKAAEEKGNFDNILSDFQKIAAAASKLPIFWERTAVVEKIPEFKQLSEPTFFTLVWMQNNGMLELIQEVAEVYETFVNAKQKKAVAKIFVAPGGEKNVEEARRVAEELHKGLKELADYTLVLKTVVDRTIVKGFAVELAGQYVNKAEGQQKQAGRADEVDYTNLPAPKPQKTVWDDNIETEVLRKYLDGLSQYDMEEAKYGV
With B4 the binding [1] was “binds”, the binding [8] was “binds” and the binding [2] was “binds”. The binding [3] was “binds”, the binding [12] was “binds” and the binding [6] was “binds”. The binding [9] was “binds”, the binding [4] was “binds” and the binding [5] was “binds”.
